Measurements reported in PubChem BioAssay AID1508597 (Cure First, 2020)
This is a random part of the about 2,100 reagents, in one setting of the screen. 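Calls flag viability under 80% in either arm, not effects specific to rucaparib; the reference for percent is not stated.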 Some reagents were tested in more than one well and are listed for each. Not given: the 100% reference.

Purpose: 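Survival screen with siRNA in ovarian cancer cells derived from patients, with or without rucaparib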 (primary screen)
Cells: human ovarian carcinoma lines grown from tumours: OCI-P5x (papillary serous) and OCI-C5x (clear cell)
Reagent: siRNA pool against human genes, 1.25 pmol siRNA per well
Time to read-out: 72 h or 96 h, depending on the cell culture
Challenge: rucaparib 20 µM (about IC30) or vehicle, present until read-out
Rucaparib or vehicle: Rucaparib
Cell line: OCI-P5x (serous)
Measured: 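ATP luminescence measured at 72 or 96 h according to the culture, then normalised and expressed as percent viability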
Reading the numbers: viability, normalised: higher = more viable cells remaining
Active means: 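Active when normalised viability falls below 80 percent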
Meaning of the calls: active = viability under 80%; inactive = viability 80% or more

| target | technical replicate | viability, normalised (%) | outcome |
| --- | --- | --- | --- |
| DDX41 | 1 | 50.2 | active |
| DDX41 | 2 | 58.5 | active |
| DDX41 | 3 | 52.3 | active |
| COQ8B | 1 | 104 | inactive |
| COQ8B | 2 | 62.1 | active |
| COQ8B | 3 | 96.1 | inactive |
| ERCC3 | 1 | 73.6 | active |
| ERCC3 | 1 | 103 | inactive |
| ERCC3 | 2 | 72.5 | active |
| ERCC3 | 2 | 116 | inactive |
| ERCC3 | 3 | 77.9 | active |
| ERCC3 | 3 | 87.3 | inactive |
| NEIL2 | 1 | 93.2 | inactive |
| NEIL2 | 2 | 72.5 | active |
| NEIL2 | 3 | 69.5 | active |
| PDE3B | 1 | 46 | active |
| PDE3B | 2 | 52.4 | active |
| PDE3B | 3 | 53.9 | active |
| CLDN18 | 1 | 56.6 | active |
| CLDN18 | 2 | 71.4 | active |
| CLDN18 | 3 | 61.7 | active |
| RAPGEF4 | 1 | 98.9 | inactive |
| RAPGEF4 | 2 | 87.4 | inactive |
| RAPGEF4 | 3 | 76.3 | active |
| BLK | 1 | 74.4 | active |
| BLK | 2 | 61 | active |
| BLK | 3 | 71.7 | active |
| ZFP82 | 1 | 85.3 | inactive |
| ZFP82 | 2 | 75 | active |
| ZFP82 | 3 | 84.7 | inactive |
| GAD1 | 1 | 60.9 | active |
| GAD1 | 2 | 56.6 | active |
| GAD1 | 3 | 59.9 | active |
| ACTR6 | 1 | 82.9 | inactive |
| ACTR6 | 2 | 81.6 | inactive |
| ACTR6 | 3 | 78.5 | active |
| DDX17 | 1 | 93.1 | inactive |
| DDX17 | 1 | 60.8 | active |
| DDX17 | 2 | 87.1 | inactive |
| DDX17 | 2 | 93.7 | inactive |
| DDX17 | 3 | 81.4 | inactive |
| DDX17 | 3 | 103 | inactive |
| MAPK14 | 1 | 88.4 | inactive |
| MAPK14 | 2 | 96.5 | inactive |
| MAPK14 | 3 | 84.7 | inactive |
| BBS7 | 1 | 71.2 | active |
| BBS7 | 2 | 80 | inactive |
| BBS7 | 3 | 76.9 | active |
| CTSD | 1 | 71.9 | active |
| CTSD | 2 | 64.9 | active |
| CTSD | 3 | 86.9 | inactive |
| MST1R | 1 | 83.9 | inactive |
| MST1R | 2 | 86.8 | inactive |
| MST1R | 3 | 83.3 | inactive |
| ERCC6L | 1 | 98.5 | inactive |
| ERCC6L | 2 | 96.6 | inactive |
| ERCC6L | 3 | 76.3 | active |

Not a retest: an excerpt of the list.
| target | technical replicate | viability, normalised (%) | outcome |
| --- | --- | --- | --- |
| MAPK14 | 2 | 96.5 | inactive |
| MAPK14 | 3 | 84.7 | inactive |
| BBS7 | 1 | 71.2 | active |
| BBS7 | 2 | 80 | inactive |
| BBS7 | 3 | 76.9 | active |
